Measured values taken from PMC9860313 (2022).

Tested on: RNA-binding Fab (antibody antigen-binding fragment, ref 25 + binds AAACA pentaloop)
Assay: X-ray crystallography
Conditions: recombinant protein

GGCGAUACCAGCGAAACACGCCCUUGGCAGCGUC
binding result (TAL2 soaked (1.1 mM), 2.46 A): binds
binding result (ligand-free, 1.81 A): binds

The exact form of at least one protein or probe is not confirmed.
